Results on eight targets are retold here after the supplement of paper PMC10849652.

Amino acid sequences for entries named in this document (tags omitted). A change or cut given only in a name is not applied to a line headed by its entry.
UniProt O94906: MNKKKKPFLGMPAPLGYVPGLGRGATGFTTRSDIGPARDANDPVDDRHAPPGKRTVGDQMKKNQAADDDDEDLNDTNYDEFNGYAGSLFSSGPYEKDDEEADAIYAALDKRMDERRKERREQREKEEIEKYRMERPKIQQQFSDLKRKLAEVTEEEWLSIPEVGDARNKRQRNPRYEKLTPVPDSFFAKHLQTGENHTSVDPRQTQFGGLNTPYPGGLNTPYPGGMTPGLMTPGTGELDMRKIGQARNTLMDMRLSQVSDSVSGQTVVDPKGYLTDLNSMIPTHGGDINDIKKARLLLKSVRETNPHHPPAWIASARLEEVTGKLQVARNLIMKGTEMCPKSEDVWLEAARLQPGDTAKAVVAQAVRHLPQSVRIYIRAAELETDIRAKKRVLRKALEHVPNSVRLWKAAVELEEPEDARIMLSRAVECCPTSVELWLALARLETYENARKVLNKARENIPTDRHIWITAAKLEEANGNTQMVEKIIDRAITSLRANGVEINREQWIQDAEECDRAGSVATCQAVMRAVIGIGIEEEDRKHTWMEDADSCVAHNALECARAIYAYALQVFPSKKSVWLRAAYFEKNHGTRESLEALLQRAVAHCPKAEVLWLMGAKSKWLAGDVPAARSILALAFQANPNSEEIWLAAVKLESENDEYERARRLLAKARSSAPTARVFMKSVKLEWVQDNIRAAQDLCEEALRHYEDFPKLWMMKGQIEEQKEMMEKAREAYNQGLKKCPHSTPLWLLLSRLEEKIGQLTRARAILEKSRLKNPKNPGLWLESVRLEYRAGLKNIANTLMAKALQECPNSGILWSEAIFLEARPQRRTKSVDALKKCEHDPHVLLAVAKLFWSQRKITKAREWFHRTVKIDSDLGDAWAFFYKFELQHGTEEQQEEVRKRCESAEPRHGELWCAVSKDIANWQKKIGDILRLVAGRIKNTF
UniProt Q96C90: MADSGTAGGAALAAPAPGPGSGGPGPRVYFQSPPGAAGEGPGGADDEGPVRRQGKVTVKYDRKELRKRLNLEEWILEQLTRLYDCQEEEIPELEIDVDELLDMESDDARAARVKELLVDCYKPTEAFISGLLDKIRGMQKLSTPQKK
UniProt Q9H2H8: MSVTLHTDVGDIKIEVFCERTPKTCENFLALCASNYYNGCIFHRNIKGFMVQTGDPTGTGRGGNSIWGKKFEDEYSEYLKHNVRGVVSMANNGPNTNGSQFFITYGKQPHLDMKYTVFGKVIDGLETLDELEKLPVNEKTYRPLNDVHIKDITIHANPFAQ
UniProt Q96I34: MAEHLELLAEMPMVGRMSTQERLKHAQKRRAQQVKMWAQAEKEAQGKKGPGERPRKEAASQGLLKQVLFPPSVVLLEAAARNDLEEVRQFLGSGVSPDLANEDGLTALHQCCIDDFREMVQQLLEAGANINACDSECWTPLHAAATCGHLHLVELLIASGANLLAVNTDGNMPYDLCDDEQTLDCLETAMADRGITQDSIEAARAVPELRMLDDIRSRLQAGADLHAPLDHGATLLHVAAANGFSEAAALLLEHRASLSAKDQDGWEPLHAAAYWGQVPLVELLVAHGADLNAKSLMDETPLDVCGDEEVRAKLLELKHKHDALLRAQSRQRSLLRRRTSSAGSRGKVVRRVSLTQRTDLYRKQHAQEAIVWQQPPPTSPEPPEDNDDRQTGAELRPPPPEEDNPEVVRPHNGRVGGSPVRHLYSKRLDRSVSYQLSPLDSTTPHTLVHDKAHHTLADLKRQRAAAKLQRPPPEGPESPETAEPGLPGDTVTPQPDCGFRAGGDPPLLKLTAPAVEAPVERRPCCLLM
UniProt O95685: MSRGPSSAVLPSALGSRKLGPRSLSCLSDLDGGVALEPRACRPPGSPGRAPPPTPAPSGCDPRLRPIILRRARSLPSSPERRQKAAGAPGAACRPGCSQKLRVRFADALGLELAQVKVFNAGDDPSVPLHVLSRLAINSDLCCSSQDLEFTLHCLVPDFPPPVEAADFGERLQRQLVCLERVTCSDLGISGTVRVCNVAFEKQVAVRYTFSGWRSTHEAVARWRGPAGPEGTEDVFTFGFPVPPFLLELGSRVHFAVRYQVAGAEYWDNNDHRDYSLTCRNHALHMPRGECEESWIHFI
UniProt Q66LE6: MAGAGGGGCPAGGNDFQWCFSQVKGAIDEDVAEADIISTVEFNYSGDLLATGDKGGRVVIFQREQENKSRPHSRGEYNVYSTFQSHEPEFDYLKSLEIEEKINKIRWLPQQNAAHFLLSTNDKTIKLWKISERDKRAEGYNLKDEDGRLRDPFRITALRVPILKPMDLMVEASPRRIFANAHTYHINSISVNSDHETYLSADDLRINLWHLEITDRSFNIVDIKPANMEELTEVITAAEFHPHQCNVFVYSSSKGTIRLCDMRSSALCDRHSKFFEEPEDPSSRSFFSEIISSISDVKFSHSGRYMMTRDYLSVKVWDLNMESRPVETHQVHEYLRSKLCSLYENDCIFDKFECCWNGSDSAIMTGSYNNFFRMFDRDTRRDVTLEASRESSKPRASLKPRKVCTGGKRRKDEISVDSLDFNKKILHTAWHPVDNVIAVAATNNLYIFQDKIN
UniProt Q13029: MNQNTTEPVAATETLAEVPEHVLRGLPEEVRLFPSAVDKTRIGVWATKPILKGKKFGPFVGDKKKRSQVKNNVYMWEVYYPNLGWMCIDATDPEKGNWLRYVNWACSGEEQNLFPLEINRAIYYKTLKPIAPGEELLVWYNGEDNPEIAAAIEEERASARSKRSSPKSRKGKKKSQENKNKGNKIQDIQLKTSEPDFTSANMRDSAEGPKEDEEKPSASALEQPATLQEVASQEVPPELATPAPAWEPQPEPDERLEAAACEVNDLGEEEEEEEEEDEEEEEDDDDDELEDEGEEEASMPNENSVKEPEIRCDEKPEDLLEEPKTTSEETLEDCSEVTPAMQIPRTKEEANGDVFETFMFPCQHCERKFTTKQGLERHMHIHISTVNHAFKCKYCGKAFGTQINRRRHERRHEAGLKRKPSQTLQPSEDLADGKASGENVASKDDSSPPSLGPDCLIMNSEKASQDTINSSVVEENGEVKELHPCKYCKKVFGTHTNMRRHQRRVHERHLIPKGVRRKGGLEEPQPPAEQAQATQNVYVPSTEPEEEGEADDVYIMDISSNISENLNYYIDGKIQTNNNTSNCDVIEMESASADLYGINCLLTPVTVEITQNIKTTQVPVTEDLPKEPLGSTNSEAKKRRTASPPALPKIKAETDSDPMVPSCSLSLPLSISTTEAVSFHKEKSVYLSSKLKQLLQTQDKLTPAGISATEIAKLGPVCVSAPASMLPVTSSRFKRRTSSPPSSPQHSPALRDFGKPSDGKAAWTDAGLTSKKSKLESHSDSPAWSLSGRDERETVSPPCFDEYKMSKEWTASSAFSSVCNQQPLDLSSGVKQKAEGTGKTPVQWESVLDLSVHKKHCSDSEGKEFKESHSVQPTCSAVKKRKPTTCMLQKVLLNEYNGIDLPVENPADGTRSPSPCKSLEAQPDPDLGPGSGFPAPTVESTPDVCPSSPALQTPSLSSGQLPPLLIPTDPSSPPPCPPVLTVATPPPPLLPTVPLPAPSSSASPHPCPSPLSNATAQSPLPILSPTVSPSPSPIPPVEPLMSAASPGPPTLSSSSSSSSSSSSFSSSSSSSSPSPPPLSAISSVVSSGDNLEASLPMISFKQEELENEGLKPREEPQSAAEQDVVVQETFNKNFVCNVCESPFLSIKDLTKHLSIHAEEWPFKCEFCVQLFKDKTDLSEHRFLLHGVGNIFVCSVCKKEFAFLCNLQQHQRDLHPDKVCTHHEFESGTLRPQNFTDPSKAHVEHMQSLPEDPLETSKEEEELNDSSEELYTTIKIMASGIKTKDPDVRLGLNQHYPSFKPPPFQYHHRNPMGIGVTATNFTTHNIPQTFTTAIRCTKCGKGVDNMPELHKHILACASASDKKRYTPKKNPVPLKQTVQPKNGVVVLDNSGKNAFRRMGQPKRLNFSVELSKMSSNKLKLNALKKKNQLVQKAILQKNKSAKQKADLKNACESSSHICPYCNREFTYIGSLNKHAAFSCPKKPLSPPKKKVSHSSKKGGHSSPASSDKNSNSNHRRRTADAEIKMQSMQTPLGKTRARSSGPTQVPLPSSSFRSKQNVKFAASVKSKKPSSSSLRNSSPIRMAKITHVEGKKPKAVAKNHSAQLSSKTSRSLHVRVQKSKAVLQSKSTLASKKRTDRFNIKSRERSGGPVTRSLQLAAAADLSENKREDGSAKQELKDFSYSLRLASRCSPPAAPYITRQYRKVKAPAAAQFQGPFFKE
UniProt O94806: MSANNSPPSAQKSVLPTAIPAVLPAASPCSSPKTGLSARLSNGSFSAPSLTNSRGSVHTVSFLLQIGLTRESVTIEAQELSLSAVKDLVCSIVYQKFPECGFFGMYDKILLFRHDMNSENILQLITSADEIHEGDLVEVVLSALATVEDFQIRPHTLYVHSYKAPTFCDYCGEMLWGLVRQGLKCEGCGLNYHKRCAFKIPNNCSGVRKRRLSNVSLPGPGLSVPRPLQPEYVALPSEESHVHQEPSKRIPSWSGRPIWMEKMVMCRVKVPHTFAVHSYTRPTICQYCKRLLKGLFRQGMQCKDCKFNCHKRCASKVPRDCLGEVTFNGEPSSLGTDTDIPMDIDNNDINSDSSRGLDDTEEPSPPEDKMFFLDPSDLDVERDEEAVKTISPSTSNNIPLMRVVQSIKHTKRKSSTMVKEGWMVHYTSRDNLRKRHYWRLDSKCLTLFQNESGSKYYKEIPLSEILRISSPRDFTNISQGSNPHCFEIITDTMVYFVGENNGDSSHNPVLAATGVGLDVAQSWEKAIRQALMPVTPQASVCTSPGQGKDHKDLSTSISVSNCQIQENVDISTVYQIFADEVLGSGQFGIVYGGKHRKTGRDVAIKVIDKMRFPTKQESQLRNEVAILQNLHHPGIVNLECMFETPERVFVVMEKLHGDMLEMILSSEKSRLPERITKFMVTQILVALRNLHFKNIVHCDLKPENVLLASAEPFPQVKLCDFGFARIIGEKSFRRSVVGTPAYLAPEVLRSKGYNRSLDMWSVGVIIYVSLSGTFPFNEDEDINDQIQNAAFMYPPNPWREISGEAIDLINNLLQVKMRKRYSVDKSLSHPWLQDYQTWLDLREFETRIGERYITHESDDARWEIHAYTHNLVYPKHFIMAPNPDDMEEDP

The other results are listed elsewhere or left out.

Assay in all cases: log2 fold change, soluble protein after heating vs DMSO (PISA); higher = thermal stabilisation; K562 lysate, 10 uM; active = over 0.2 and 3.5 SD of the protein, either way, in both replicates (recomputed)
Compound in one assay: CN1CC[C@H](c2c(O)cc(O)c3c(=O)cc(-c4ccccc4Cl)oc23)[C@H](O)C1 [alvocidib]
The gist of the method: (§1)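 To prepare the extract, K562 pellets were dounce-homogenised in PBS pH 7.4 with 1 mM MgCl2, giving crude material at 1 mg/mL protein. This was treated with 10 μM compound for 30 min, then heated in aliquots for 3 min over 48°C-58°C before pooling and addition of NP-40 to 0.5% at 4°C. Centrifugation at 21,000xg for 90 min left soluble protein in the supernatant, which TMTpro 16plex LC-MS/MS quantified with equalised channel sums. Results are log-two fold changes in thermal stability compared with solvent controls, from duplicates.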

Compound in the next assay: CN1CCc2c(c3ccccc3n2Cc2ccc(C(=O)NO)cc2)C1 [Tubastatin A]
An outline of the steps:
as §1

Compound in assay [1]: CNC(=O)C1=CC=CC=C1NC2=NC(=NC=C2Cl)NC3=C(C=C(C=C3)N4CCOCC4)OC
An outline of the steps:
as §1

Compound in the next assay: CNC(=O)c1ccc(Nc2ncc(C(F)(F)F)c(NCc3nccnc3N(C)S(C)(=O)=O)n2)cc1 [defactinib]
The gist of the method: as §1

Compound in assay [2]: CNc1nc(-c2ccc3c(N)n[nH]c3c2)cc(N2C[C@@H](C(=O)NC3CCCCC3)CC[C@H]2C)n1
The gist of the method: as §1

Compound in another assay: COC(=O)N[C@@H](C)CNc1nccc(-c2cn(C(C)C)nc2-c2cc(Cl)cc(NS(C)(=O)=O)c2F)n1 [encorafenib]
An outline of the steps:
as §1

Compound in assay [3]: COC(=O)[C@H](CCSC)NC(=O)C1=C(C=C(C=C1)NC[C@H](CS)N)C2=CC=CC=C2
An outline of the steps: as §1

Compound in the next assay: COc1cc(Nc2ncc3c(n2)-c2ccc(Cl)cc2C(c2c(F)cccc2OC)=NC3)ccc1C(=O)O [alisertib]
The gist of the method: as §1

Compound in assay [4]: COc1cc2nc(-c3cc(F)ccc3O)nc(N[C@@H]3CNC[C@H]3C(C)(C)O)c2cc1OC
An outline of the steps: as §1

Compound in a further assay: COc1cc2ncnc(Nc3ccc(F)c(Cl)c3)c2cc1OCCCN1CCOCC1 [gefitinib]
The gist of the method:
as §1

Compound in another assay: CS(=O)(=O)CCNCc1ccc(-c2ccc3ncnc(Nc4ccc(OCc5cccc(F)c5)c(Cl)c4)c3c2)o1 [lapatinib]
An outline of the steps: as §1

Compound in another assay: CS(=O)(=O)N1CCN(Cc2cc3nc(-c4cccc5[nH]ncc45)nc(N4CCOCC4)c3s2)CC1 [pictilisib]
An outline of the steps: as §1

Compound in the next assay: C[C@@H](Oc1cc(-c2cnn(C3CCNCC3)c2)cnc1N)c1c(Cl)ccc(F)c1Cl [crizotinib]
An outline of the steps:
as §1

Compound in assay [5]: C[C@H](C1=CC=C(C=C1)C(=O)NC2=C3C=CNC3=NC=C2)N
An outline of the steps: as §1

Compound in another assay: C[C@H](Nc1ncnc2nc[nH]c12)c1cc2cccc(Cl)c2c(=O)n1-c1ccccc1 [duvelisib]
The gist of the method:
as §1

Compound in another assay: Cc1cc(Nc2cc(CN3CCOCC3)c3nc(C)c(Cc4ccc(Cl)cc4F)n3n2)n[nH]1 [gandotinib]
The gist of the method: as §1

Compound in another assay: Cc1cc(Nc2cc(N3CCN(C)CC3)nc(Sc3ccc(NC(=O)C4CC4)cc3)n2)n[nH]1 [tozasertib]
The gist of the method: as §1

Compound in another assay: Cc1ccc(-n2nc(C(C)(C)C)cc2NC(=O)Nc2ccc(OCCN3CCOCC3)c3ccccc23)cc1 [doramapimod]
The gist of the method: as §1

Compound in a further assay: Cc1ccc(NC(=O)c2ccc(CN3CC[C@H](N(C)C)C3)c(C(F)(F)F)c2)cc1Nc1nccc(-c2cncnc2)n1 [bafetinib]
The gist of the method: as §1

Compound in assay [6]: Cc1cccc(CC(=O)N2CCc3c2ccc(-c2cn(C)c4ncnc(N)c24)c3F)n1
The gist of the method:
as §1

For the target PRPF6 (UniProt O94906), the log2 fold change was inactive: 0.006 with alvocidib; inactive: -0.096 with Tubastatin A; inactive: 0.01 in assay [1]; inactive: 0.025 with defactinib; inactive: -0.011 in assay [2]; inactive: 0.024 with encorafenib. For the same target, the log2 fold change in assay [3] is active: 0.22; with alisertib, inactive: 0.008; in [4], inactive: 0.009; with gefitinib, inactive: -0.016; with lapatinib it was inactive: -0.008; with pictilisib it was inactive: 0.009. Further, the log2 fold change is inactive: -0.06 in the assay with crizotinib; inactive: -0.023 in assay [5]; inactive: -0.023 with duvelisib; inactive: -0.08 in the assay with gandotinib; inactive: 0.023 with tozasertib; inactive: 0.064 in the assay with doramapimod. The log2 fold change is inactive: -0.056 with bafetinib and inactive: 0.031 in assay [6].

Take PPP1R14B (UniProt Q96C90): the log2 fold change with alvocidib was inactive: 0.012; with Tubastatin A, inactive: -0.009; in assay [1], inactive: 0.008; with defactinib it was inactive: -0.124; in assay [2] it was inactive: 0.078; in the assay with encorafenib, inactive: -0.002. The log2 fold change in assay [3] is inactive: -0.013; with alisertib, inactive: -0.018; in [4], inactive: -0.019; with gefitinib it was inactive: -0.119; with lapatinib it was inactive: 0.007; with pictilisib it was inactive: -0.047. The log2 fold change with crizotinib is inactive: -0.015; in assay [5], inactive: -0.045; in the assay with duvelisib, inactive: 0.05; with gandotinib it was inactive: 0.059; with tozasertib, inactive: 0.053; with doramapimod it was inactive: 0.022. Further, the figures for the log2 fold change (with bafetinib; in [6]) were inactive: -0.065 and inactive: -0.07, respectively.

Take PPIL3 (UniProt Q9H2H8): the log2 fold change with alvocidib was inactive: -0.105; with Tubastatin A it was inactive: -0.044; in assay [1], inactive: 0; in the assay with defactinib, inactive: -0.115; in [2], inactive: 0.012; with encorafenib, inactive: 0.011. Moreover, the log2 fold change in assay [3] is inactive: 0.008; in the assay with alisertib, inactive: -0.033; in [4], inactive: 0.018; with gefitinib, inactive: -0.02; with lapatinib it was inactive: 0.05; with pictilisib, inactive: -0.062. The log2 fold change with crizotinib is inactive: 0.079; in assay [5] it was inactive: -0.115; with duvelisib it was inactive: -0.009; with gandotinib, inactive: 0.084; with tozasertib, inactive: -0.019; with doramapimod, inactive: 0. Also, the log2 fold change was inactive: -0.037 in the assay with bafetinib and inactive: 0.08 in [6].

Regarding PPP1R16A (UniProt Q96I34), the log2 fold change with alvocidib was inactive: -0.209; with Tubastatin A it was inactive: -0.08; in [1], inactive: 0.12; in the assay with defactinib it was inactive: 0.106; with encorafenib, inactive: 0.058; in assay [3], inactive: -0.093. Further, the log2 fold change in [4] was inactive: 0.089; with lapatinib, inactive: -0.023; with pictilisib, inactive: -0.031; in [5], inactive: -0.13; with gandotinib, inactive: 0.024; with tozasertib it was inactive: -0.013. Further, the log2 fold change with bafetinib was inactive: 0.115; in [6], inactive: 0.015.

PPP1R3D (UniProt O95685): the log2 fold change in the assay with alvocidib is inactive: -0.058; in the assay with Tubastatin A, inactive: -0.009; in assay [1], inactive: 0.039; in the assay with defactinib it was inactive: 0.088; with alisertib, inactive: 0.078; in [4] it was inactive: -0.063. Also, the log2 fold change was inactive: 0.01 with gefitinib; inactive: -0.031 with lapatinib; inactive: -0.004 in the assay with pictilisib; inactive: 0.021 in the assay with crizotinib; inactive: 0 in assay [5]; inactive: 0.029 with gandotinib. Also, the log2 fold change is inactive: -0.043 in the assay with doramapimod, inactive: 0.031 in the assay with bafetinib and inactive: 0.01 in assay [6].

With PPP2R2D (UniProt Q66LE6), the log2 fold change is inactive: -0.015 with alvocidib; inactive: 0.096 with Tubastatin A; inactive: 0.008 in assay [1]; inactive: -0.06 in the assay with defactinib; inactive: -0.028 in assay [2]; inactive: 0.031 in the assay with alisertib. Also, the log2 fold change in assay [4] is inactive: -0.009; with gefitinib, inactive: 0.103; with lapatinib, inactive: -0.015; with pictilisib, inactive: 0.029; with crizotinib it was inactive: 0.053; in [5], inactive: -0.149. Further, the log2 fold change with duvelisib was inactive: 0.01; in the assay with gandotinib, inactive: 0.084; with doramapimod, inactive: -0.036; with bafetinib it was inactive: -0.032; in assay [6] it was inactive: 0.046.

PRDM2 (UniProt Q13029): the log2 fold change in the assay with alvocidib is inactive: 0.006; with Tubastatin A it was inactive: 0.036; in assay [1], inactive: -0.04; in the assay with defactinib, inactive: -0.024; in [2], inactive: 0.19; in assay [4], inactive: 0.01. For the same target, the log2 fold change in the assay with lapatinib is inactive: -0.058; with pictilisib, inactive: 0.192; in [5], inactive: -0.081; with duvelisib, inactive: -0.065; with gandotinib, inactive: 0.029; in the assay with bafetinib it was inactive: -0.106. Besides, in [6], the log2 fold change was inactive: 0.117.

PRKD3 (UniProt O94806): the log2 fold change is inactive: -0.308 in the assay with alvocidib; inactive: -0.014 in the assay with Tubastatin A; inactive: -0.066 in assay [1]; inactive: 0.059 with defactinib; inactive: 0.077 with encorafenib; inactive: 0.233 in assay [3]. Also, the log2 fold change was inactive: 0.139 with alisertib; inactive: 0.087 in assay [4]; inactive: -0.051 with gefitinib; inactive: 0.031 with lapatinib; inactive: 0.019 with pictilisib; inactive: -0.199 in the assay with crizotinib. Further, the log2 fold change was active: -0.643 in assay [5]; inactive: 0.423 with gandotinib; inactive: 0.092 in the assay with tozasertib; inactive: -0.075 with doramapimod; inactive: -0.086 with bafetinib; inactive: 0.46 in [6].
